Measurements reported in PubChem BioAssay AID1259330 (Drosophila RNAi Screening Center, 2017)
Assay: 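How silencing metal candidate genes changes total ATP without added metal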. Cells: Drosophila S2R+ cells. Reagents: long dsRNA against Drosophila genes. Timing: 5 days (4 days of knock-down, then 1 day after water). Conditions: water added as vehicle control after 4 days, 1 day before read-out; no manganese or zinc. Measured: 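Total ATP measured by CellTiter-Glo luciferase light, given as z-scores from the mean of duplicate plates; 4 days knock-down, then water for 1 day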. Direction: ATP z-score, pair 1 and ATP z-score, pair 2: higher = more total ATP than other wells. Active means: 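Active means the ATP z-score of replicate pair 1 lies beyond 1.5 in either direction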.
The deposit covers 95 reagents; this is a random part of them. 6 of them (6.3%) were called active. 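Calls rest on pair 1 alone and pair 2 does not reproduce them; printed active calls all sit near 1.5 or higher.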 A number with no mark means an inactive call. Not stated in the record: the amount of reagent.

The first 3 records, ahead of the listing:
target gene	amplicon	ATP z-score, pair 1	ATP z-score, pair 2
Atox1 (GeneID 326216)	DRSC22416	0.908	-1.14
Ctr1A (GeneID 31601)	DRSC40310	-0.574	-0.614
Ctr1A (GeneID 31601)	DRSC40902	-0.383	-0.486

Results, repeating the preview:
target gene	amplicon	ATP z-score, pair 1	ATP z-score, pair 2
Atox1 (GeneID 326216)	DRSC22416	0.908	-1.14
Ctr1A (GeneID 31601)	DRSC40310	-0.574	-0.614
Ctr1A (GeneID 31601)	DRSC40902	-0.383	-0.486
Alk (GeneID 53425)	DRSC23342	-1.01	-0.724
Alk (GeneID 53425)	DRSC33404	-0.481	0.784
Alk (GeneID 53425)	DRSC36973	0.625	-0.421
VhaSFD (GeneID 34997)	DRSC03471	-0.388	0.176
VhaSFD (GeneID 34997)	DRSC32234	-0.915	-0.258
VhaSFD (GeneID 34997)	DRSC32235	-0.251	-1.36
Vha36-1 (GeneID 44702)	DRSC07098	1.31	1.22
Vha36-1 (GeneID 44702)	DRSC25624	0.282	0.331
p38a (GeneID 42866)	DRSC36706	-0.326	-0.487
p38a (GeneID 42866)	DRSC37322	0.857	-0.626
MtnA (GeneID 41202)	DRSC21588	-0.927	0.761
ZnT63C (GeneID 38407)	DRSC23528	-0.571	1.04
ZnT63C (GeneID 38407)	DRSC37698	1.39	0.691
mTor (GeneID 47396)	DRSC02811	3.06 (active)	2.59
mTor (GeneID 47396)	DRSC40810	2.66 (active)	1.73
Sod1 (GeneID 39251)	DRSC11286	-0.0342	-0.63
Sod1 (GeneID 39251)	DRSC40766	-0.18	-0.854
CG7536 (GeneID 32786)	DRSC20050	0.209	-0.265
CG7536 (GeneID 32786)	DRSC39596	-0.141	-0.731
eEF1gamma (GeneID 44791)	DRSC23655	-0.489	1.65
eEF1gamma (GeneID 44791)	DRSC35716	0.618	-1.12
anne (GeneID 317815)	DRSC29952	0.36	0.375
anne (GeneID 317815)	DRSC40853	0.0403	0.161
Rbcn-3A (GeneID 31557)	DRSC18314	-0.0512	0.542
Rbcn-3A (GeneID 31557)	DRSC28199	-0.0969	0.701
CG42674 (GeneID 40205)	DRSC29701	0.258	1.34
CG42674 (GeneID 40205)	DRSC35487	-0.829	-0.72
CHMP2B (GeneID 38599)	DRSC10436	-0.424	0.906
CHMP2B (GeneID 38599)	DRSC26221	-1.18	-0.815
p38b (GeneID 34780)	DRSC37327	0.266	1.07
Zip102B (GeneID 43786)	DRSC17155	0.679	-0.53
Zip102B (GeneID 43786)	DRSC39247	-0.546	1.21
sp3 (GeneID 42545)	DRSC16354	-0.0158	-0.823
sp3 (GeneID 42545)	DRSC41446	-0.823	-1.03
